Drawing on patent US20220244254A1, “Screening Methods and Assays for Use with Transmembrane Proteins, in Particular with GPCRs” (CONFO THERAPEUTICS N.V., priority 2019, published 2022), this text covers binding for 1 molecule.

Results are given in words; binding and its absence hold for the method and conditions named. Some entries that bind do so weakly or less than the wild type. Tags and fused reporters may be left off the sequences shown.

The target in the test is recombinant human OX2R receptor (OX2-MOR chimer) fused at the C-terminus to LgBiT (human). The test can be described thus: NanoBiT complementation of XA8633-SmBiT and recombinant OX2R (OX2-MOR chimer)-LgBiT in HEK 293T cells, agonist-dependent signal (Example 10, FIGS. 18 to 22).

B1: XA8633 fusion (XA8633 fused at the C-terminus to SmBiT) (VHH)
VHH: QVQLQESGGGLVRPGGSRRLSCVDSERTSYPMGWFRRAPGKEREFVASITWSGIDPTYADSVADRFTISRDVANNTLYLQMNSLKHEDTAVYYCAARAPVGQSSSPYDYDYWGQGTQVTVSS
Regarding B1, the binding result is given as “binds”.
